Laboratory results taken from the supplement of paper PMC5949888.
± gives the standard deviation of the averaged measurements. Most values lie at the floor of the assay. Slopes are relative: functional sequences can read slightly below zero.

These substances were tested on Saccharomyces cerevisiae PS128 hsf1 delta, HSF1(1-493) fusion (assay: growth estimate (transactivation domain function in HSF1 fusion, heat-shock survival) (a.u. (slope of normalised read count over time)); higher = stronger growth at 37°C, i.e. more transactivation activity). Settings: library: random library.
Protocol: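 Random 60-nt DNA library encoding peptides of up to 20 aa, fused to the C-terminus of yeast HSF1 residues 1-493 (C-terminal TAD deleted) and expressed from the native HSF1 promoter on a CEN plasmid in hsf1-deleted S. cerevisiae PS128. Cells were selected at 37°C on -trp 5-FOA plates for 0, 2, 4, 6 and 8 days and amplicons were sequenced. Growth estimate is the slope of a robust linear fit of total-sum-normalised read counts (normalised to the first time point) over time, using at least 2 replicates. Sequences are classed functional (TAD activity) above a threshold of -0.13, set from stop-codon control sequences.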

Substance	growth estimate
FPLVPRCTVRAFTA	< -0.25
ETVGSEHEQS	< -0.25
RSGLRPLCT	< -0.25
RVSLSSRLS	< -0.25
FRSTCSLL	< -0.25
DHFSSS	< -0.25
DVLSEGYGAISFNRFTPRRT	< -0.25
LLHCKSPTLGPIYKVLILAD	< -0.25
PRKPL	< -0.25
AYRVKHKTTKCQRGTPLNGP	< -0.25
SDV	< -0.25
DSEAYRSRHQLAAEPD	< -0.25
ETD	< -0.25
SFR	< -0.25
QLGGPFI	< -0.25
GQFLDRRTDAARKEQSRDSP	< -0.25
RGSSRVGY	-0.248
AFTSSCALR	< -0.25
GMVTMNYGDL	< -0.25
RIT	< -0.25
DHLWWYIAVMGCRPGVRFDR	< -0.25
VLSE	< -0.25
LINATCPSKGWRASLGNATP	< -0.25
NSRAREQPCHQLRYQQPMLA	< -0.25
FYGNDFYGIWVRTQVYR	< -0.25

Substance	growth estimate
PGPMICICLNSARLYERAGH	< -0.25
DRLY	< -0.25
SDAAPAQCCRARILRRCLTH	< -0.25
PIPNVTSAALGRRPGMWGHQ	< -0.25
VCAVEVRENQRGVHVYSEIT	< -0.25
TNKR	< -0.25
GGVLLGPIYDIGRNESHTIP	-0.0076
GKEGAVKQPILQQFEPLNSH	< -0.25
CCSHLVSL	< -0.25
TLTGAWFALSHVRGSLHPGT	< -0.25
RGNI	-0.243
NACLTPPSSR	< -0.25
TSAQPFSCPNGV	< -0.25
KRLIPGPFSGTACLEASLWV	< -0.25
RPHRVGSLRLRNWHYLEVGM	< -0.25
GNAPSCLLMLFSSSDRY	< -0.25
SDVTRVF	< -0.25
SHYRADFG	< -0.25
IGTRIKGDRHVRVARG	< -0.25
TLQCSYGG	< -0.25
GMLQIDEIKLCLRCARGIVL	< -0.25
NRATCYVSCAFCRFAVMNAP	< -0.25
FGGTICVGQGFADVMYRIRP	< -0.25
YHPTAGCIFVEIRHSGRFAC	< -0.25
SAAN	< -0.25

Substance	growth estimate
CWYKLRRGSPSSPPAQCSAH	< -0.25
GNVGWKLGHAYGKRCRTLDC	< -0.25
YEISGLNNSSLLCRGATLPD	< -0.25
CSLCGNGPPANACGTRGGLA	< -0.25
DGGQALSGQSFPRTGGLAGE	< -0.25
PGRPALHILLGN	< -0.25
RHEYAIDETRLDRCYNWIAG	< -0.25
RDDSVGDVHKSAIEVRLYR	< -0.25
RVDAVCLHRG	< -0.25
PEEES	< -0.25
GFRQIGGKCPDGSFDKCGIL	< -0.25
RPGGSVRSRDAGFLSSPSLQ	< -0.25
SCEESSDPG	< -0.25
ALTVRNLPSHQDKL	< -0.25
RWNGPADKV	< -0.25
SSRL	< -0.25
TECQWQSRLTILRWTATLIV	< -0.25
HYPSGVKASWRVSN	< -0.25
QEVHAYADGRSYI	< -0.25
IISWWLYYSGIYYGQGFRSV	< -0.25
SSVRATRILNGRD	< -0.25
NLSPGR	< -0.25
GGYPRYFWASCP	< -0.25
VSRTRLRRRRTQNPF	< -0.25
VKGTALRI	-0.21

Substance	growth estimate
CSSLRAGASGLPPVLARSRQ	-0.2
PYGDPQVSPVRVCYIHVTNR	< -0.25
SSWHTSLLLRWVWRWRHMHS	< -0.25
WIARRGGNSAPRSRCAKVQS	< -0.25
CTGKVEPCLREASRLPTVCA	< -0.25
PSSEADARCLACPGLLAIVT	< -0.25
LKCGGGGNNPLAA	< -0.25
GSTFNREWFEIFWRNNLVVG	< -0.25
HVKGGPRSPILPEPIRARVT	< -0.25
SDHGDQGPLREC	< -0.25
SVTRKLPYLGSKLEGAFERG	< -0.25
SKIRPHNPFQAPRKPLANWP	< -0.25
RGRKRLKRYSIPWG	< -0.25
RPPRNDRT	< -0.25
SFNRHPPHWNAQYCFGGWAH	< -0.25
VGLFQLTPVAIRPRVWRRIP	< -0.25
GEMGLLAPELQGGRREMSSC	< -0.25
GSGVTSELRHAMADASLGE	< -0.25
HDHRVRWLHGPAGKLLYRSL	< -0.25
TRTTSRCMW	< -0.25
MYDSLLRSRIRITVVARSRD	< -0.25
ASKAEISGLDGLGLPTPYAL	< -0.25
AQIREVVHKPQQVRHRPRKC	< -0.25
STADGIVCFG	< -0.25
RKFGCIGSREKKGATRSQSS	< -0.25

Substance	growth estimate
LQQP	-0.231
GLSV	< -0.25
SSVSGIRRN	< -0.25
VHKVNALKLCYFLISVRLIL	< -0.25
WVKVTWYAPCTFSYIDHVGA	< -0.25
HPPSRSLQPVIGGNTTSSVA	< -0.25
ADCARTRSAFS	< -0.25
EHRVKIDLLLCLRAICHRRL	< -0.25
NPSWKCTDFEKSALVPGSLG	< -0.25
THIWGLVRSTNPTISTGSEG	< -0.25
ALKKRGEYAVVINDLRQLQP	< -0.25
VFQSWSLPCGALREAAWG	< -0.25
RVQGRGTIILVCVVQWNLYC	< -0.25
ALGPGVHCN	< -0.25
GTMYPSRPDRSKALHSASPL	< -0.25
HTYQSSVQASLERKPPST	< -0.25
RLVNLGGTCRRMSAPGALFG	< -0.25
RVLPGILVRMNWRWARACTT	< -0.25
SVLNLQQLVYYWGKMSGEVG	< -0.25
FSEGRVYGRGAKFSPPWNLR	< -0.25
THLDF	< -0.25
YKAGSYRTRFDGSLGFESPR	< -0.25
GELGTDGEQTLNRPWGDFTE	< -0.25
WHRNENKESLYALIGSCT	< -0.253
TVLR	-0.244 ± 0.011

Substance	growth estimate
LESSGTGGGGIGVGVITSVV	< -0.25
IGRVPASASTAGF	< -0.25
GEASLD	< -0.25
QCQVMCRVGLA	< -0.25
AMRGWSK	< -0.252
RLRQ	< -0.25
GSDSYRMEVSSA	< -0.25
FLATPSGPQFNSTQVRCRPK	-0.222
GDRVAKYILRQAFR	< -0.25
FVATHHTRVRLADTHSLSRR	< -0.25
TKSASDRTAYEDTITALLQL	< -0.25
AASCSG	< -0.25
LVCTTVSAV	< -0.25
RGA	< -0.25
TDYCLSIPGSPSTEARTISP	< -0.25
SVAFAYGRRVL	< -0.25
KVEYLHRRLHA	< -0.25
AAVRDL	< -0.25
IKQDSLPGGRRSLTVSRHKM	< -0.25
PGLCSGRLGFRLSYTH	< -0.25
